Measurements as given in PubChem BioAssay (EPA / NIEHS).
The inconclusive results got no clear call from the source; some entries with a clear call stand among them for comparison. Potencies beside an inconclusive call are fits to weak or partial responses and may not hold up. The source made the active and inactive calls. The calls were made as follows: active = hit-call score of the fitted dose curve at least 0.9, where 1 is the maximum; inconclusive = response in the unintended direction; inactive = score below 0.9.

Chains of the proteins cited; added tags and fusions are not shown.
UniProt P17948, whole entry, looked up: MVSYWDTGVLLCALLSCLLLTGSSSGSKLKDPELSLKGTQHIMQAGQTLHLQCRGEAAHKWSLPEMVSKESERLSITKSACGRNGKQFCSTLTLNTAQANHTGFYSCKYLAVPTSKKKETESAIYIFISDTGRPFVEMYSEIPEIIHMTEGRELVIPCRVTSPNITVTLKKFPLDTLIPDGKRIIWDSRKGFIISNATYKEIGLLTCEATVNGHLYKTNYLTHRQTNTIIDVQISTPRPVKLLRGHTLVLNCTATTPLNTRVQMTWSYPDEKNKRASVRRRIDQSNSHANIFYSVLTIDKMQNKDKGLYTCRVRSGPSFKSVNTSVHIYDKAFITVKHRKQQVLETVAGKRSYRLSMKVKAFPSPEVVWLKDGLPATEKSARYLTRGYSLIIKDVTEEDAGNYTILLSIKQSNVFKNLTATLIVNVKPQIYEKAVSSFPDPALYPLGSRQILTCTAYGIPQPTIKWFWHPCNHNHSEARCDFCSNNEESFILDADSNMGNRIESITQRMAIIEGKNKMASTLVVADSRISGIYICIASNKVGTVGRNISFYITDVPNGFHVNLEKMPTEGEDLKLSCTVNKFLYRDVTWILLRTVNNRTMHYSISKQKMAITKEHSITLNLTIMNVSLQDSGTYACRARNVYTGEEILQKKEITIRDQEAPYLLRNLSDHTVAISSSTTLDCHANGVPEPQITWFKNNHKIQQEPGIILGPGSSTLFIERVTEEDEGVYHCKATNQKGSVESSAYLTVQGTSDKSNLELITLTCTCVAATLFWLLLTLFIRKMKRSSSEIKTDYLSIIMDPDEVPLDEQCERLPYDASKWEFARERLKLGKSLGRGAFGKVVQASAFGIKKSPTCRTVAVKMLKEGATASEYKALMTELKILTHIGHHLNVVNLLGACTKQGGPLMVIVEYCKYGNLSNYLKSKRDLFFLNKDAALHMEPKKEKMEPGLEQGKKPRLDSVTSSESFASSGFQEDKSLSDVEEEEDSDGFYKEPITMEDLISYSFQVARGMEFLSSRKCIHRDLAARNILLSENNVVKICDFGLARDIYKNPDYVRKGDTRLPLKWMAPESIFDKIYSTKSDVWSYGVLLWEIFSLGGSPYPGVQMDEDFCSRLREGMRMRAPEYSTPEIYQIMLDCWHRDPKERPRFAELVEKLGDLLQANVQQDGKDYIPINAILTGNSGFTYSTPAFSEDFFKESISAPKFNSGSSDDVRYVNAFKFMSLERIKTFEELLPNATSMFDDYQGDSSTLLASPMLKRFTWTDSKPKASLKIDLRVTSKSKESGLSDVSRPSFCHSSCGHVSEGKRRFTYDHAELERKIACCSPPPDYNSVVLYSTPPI

target: human Vascular Endothelial Growth Factor Receptor 1 (VEGFR1), FLT1 (gene 2321) (UniProt P17948); assay: NVS_ENZ_hVEGFR1: NovaScreen (NVS) Enzymatic Assay for human Vascular Endothelial Growth Factor Receptor 1 (VEGFR1) (AID 2283226)
In short: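 Cell-free assay of recombinant human VEGFR1 kinase with substrate, measured 1 h after dosing; fluorescence with electrophoretic mobility-shift separation of substrate and product, referenced to DMSO; primary screen at 25 uM in duplicate, actives then run in concentration series.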

Compound	AC50	outcome
CCC(C)OC(=O)N1CCCCC1CCO (stereo not given)	inconclusive: 41.6 µM	
CC(C)CC(=O)CC(C)CC(C)C (stereo not given)	inconclusive: 7.66 µM	
CCOC(=O)C(=O)OCC	inconclusive: 0.59 µM	
CC(=O)OCCc1ccccc1	inconclusive: 0.524 µM	
CCC(C)c1cc([N+](=O)[O-])cc([N+](=O)[O-])c1OC(=O)OC(C)C (stereo not given)	inconclusive: 1.09 µM	
C=C(C)[C@H]1CC=C(C)C(=O)C1	inconclusive: 16.1 µM	
ClCCCl	inconclusive: 37.9 µM	
CCCCN(CCCC)CCCC	inconclusive: 0.714 µM	
CC1=C(/C=C/C(C)=C/C=C/C(C)=C/C(=O)O)C(C)(C)CCC1		inactive
CCOc1ccc(NC(=O)CC(C)=O)cc1	inconclusive: 35.6 µM	
CC(C)(C)c1ccc(O)c(O)c1	inconclusive: 4.05 µM	
Cc1cc(CCC(=O)OCCOCCOCCOC(=O)CCc2cc(C)c(O)c(C(C)(C)C)c2)cc(C(C)(C)C)c1O	inconclusive: 1.33 µM	
CC(=O)c1c(C)c([N+](=O)[O-])c(C(C)(C)C)c([N+](=O)[O-])c1C	inconclusive: 6.62 µM	
Cc1ccc2ccccc2n1	inconclusive: 0.465 µM	
CC(CCO)CCCC(C)(C)O (stereo not given)	inconclusive: 0.328 µM	
CC1(C)[C@H]2CC[C@]1(C)[C@H](O)C2	inconclusive: 25 µM	
FC(F)(F)C(F)(F)C(F)(F)C(F)(F)C(F)(F)C(F)(F)CCI		inactive
CCCCCCOC(C)=O	inconclusive: 0.116 µM	
O=C1NC(=O)C(c2ccccc2)(c2ccccc2)N1		inactive
O=c1[nH]nnc2ccccc12	inconclusive: 6.69 µM	

Two entries from above, set out differently:
Compound | AC50 | outcome
CCC(C)c1cc([N+](=O)[O-])cc([N+](=O)[O-])c1OC(=O)OC(C)C (stereo not given) | inconclusive: 1.09 µM | 
Cc1ccc2ccccc2n1 | inconclusive: 0.465 µM | 
